According to PubChem BioAssay AID1508600 (Functional Genomics Laboratory (NCATS/FGL), 2020):
Hit rate of the full screen: of about 53,000 sequences, about 3,700 (7%) were called active.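 The calls were made as follows: active = gene knockdowns whose robust z-score for IL-1 alpha signal is at least 2 or at most -2, so actives lie on both sides; inactive = the rest.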 This is one part of the list.

Test: Components of the Cytosolic LPS Sensing Pathway: Gene Identification via Genome-wide siRNA Screen;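 also: robust z of the log signal after scaling to non-targeting control siRNA wells of the plate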
Details: RAW264.7 macrophages, IL-1a HTRF, actives lie on both sides, screened at 100 nM (by protocol), cells primed 5 h with Pam3CSK4 first
Procedure, shortened: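 Supernatant IL-1a by HTRF from RAW264.7 cells primed with Pam3CSK4 (5 hours) and transfected with LipidA (24 hour) after 48h siRNA knockdown at 100 nM; cell viability checked with CellTiter-Glo.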

z-score, active:
GGGCUGGAAUCUAGGAAGUTT against Ccr10 2.68
GCAUGUUGUCGACACAUGCTT against Bcl6 2.39
CCUCAAACCAUCAACAACCTT against Six3 -2.04
GCCUCGAUUGGCCACAUUUTT against Atp5l 4.61
GGAACACAAUAGUACAUACTT against Slc2a4 3.98
GGAUUUUCGAUUCUCUUACTT against Glg1 2.25
GGGAAGAAGACUGACAAGCTT against Lars 2.03
GGAUAUGGAAGAAGUUGUGTT against Olfr1089 -2.2
GGUAAGGAAAACAAAUAUGTT against En1 2.13

z-score, inactive:
GGUCCUUGGUAAUCAAAUATT against Zc3h7a -0.554
GGAAAAGGGUAAACAAACATT against Car13 0.978
GGAGGUCAGAAGGUGUGUUTT against Rad52 -1.43
CCCAAACACCAACCAACUGTT against Unc93a 0.507
GGAUGUCAAAUCUGCUGUATT against Olfr229 -1.48
GCGUGAUUGACAACUGGUUTT against Cphx1 0.236
GCAAGCCCAUUGAUCAGAGTT against Rhno1 -1.77
GCAAGUAUACACCUCUCAATT against Slc6a12 0.884
GGACCUUAAAGAAACAUUUTT against Iws1 1.67
GGUAGUCAUCAGCUACUUCTT against Slc31a1 -0.877
GGGAAAAGAAGUUUCAAGUTT against A430072C10Rik -0.309
GCACAGCUCUACAUAAUUUTT against Olfr312 -0.817
GGGCCUUAAAUUCCUAACCTT against Spinkl -0.546
GCUCUUCUUCUUCUCCUUGTT against Olfr1411 -0.86
GGAUAACCACGACAAAAUATT against Ttc7 -0.853
GGUUCUGGUAUAAGUUAACTT against Gabrg3 0.292
GCGGGCCAAGGUAGAAUACTT against Kdm1a 0.442
GCCAGUGGUAGCGAUAUGATT against Zscan4c -0.263
GCCCUCGGAUAGAAUGGAUTT against Ccdc32 -1.24
GUGUAAGAUCUGACACUUUTT against Krtap5-2 0.733
GGUCUCCAUUUCUUUCUGCTT against Nmd3 -0.952
GGGAGGUUAAAAUUGGCUATT against Sertm1 -1
GGACAAUUACUCCAAAAUUTT against Tnfsf10 0.724
GCACUACAAACAGUUCCGATT against Fat4 1.03
GGCUGAGUGGCUCUAUAGUTT against Cep97 -1.29
GGUCCACUAAGAAGACAUATT against Fibcd1 -0.488
GGUCUUCCGAGAAGGUUAATT against Chst4 1.28
GGAAAUGUCUUGUCACUAATT against Bzw1 0.896
CCAGGAAAUUCGUGCAUGATT against Sgsm2 -0.307
GGAAAGAGGAAGAUAAAGUTT against 2310002L09Rik -1.17
GCCGAACUGUCAGUACUUCTT against Ccn3 0.0642
GGAUGGGUCAAUGUUCUACTT against V1rb6 0.232
GGUUGGAGCACUAGUGAGATT against Imp4 0.204
GGGAUAAGUACUCUGCUAATT against Sorcs3 -0.146
GGGCUGUUUGGAAUAAUAATT against Gmppb -0.0465
GGAAGAGAGCAGAAAGAAGTT against Trim35 -0.135
GCCAGAAGAGCAGAAAGUUTT against Enpp5 -1.11
GCACUACACCUCCAGUUCGTT against Gne 0.164
GGUCUGCCUUUGAAAAAAATT against Bckdha -0.475
CGAGGAUUUCGAUUCCAUUTT against Mael 0.384
CCUUGUUCCCGAAAUACCGTT against Krr1 -0.471
GGUACACGUCUUGUCUCUGTT against Spry2 -0.367
GGGAAGGAUUAGCAUGUCGTT against Rida -1.33
GGAGAUCUACUUUCUCAACTT against Crtac1 -0.071
GGGUGGUGUUUUAACCCUUTT against Mep1b -1.48
GGAGCUUGUGAACACCUUCTT against Nudc 0.718
CGUGUACGACAUCUCCUAUTT against Rilpl2 -1.84
GGCUGUUUAUUGUAAUGGATT against Nek5 1.12
CCUACAGUGACCUUUCCCGTT against Apcs -1.22
GGGAGAGAACGUGUUCUUCTT against P2rx6 -0.477
GGAAACCUGGAAACAGUUUTT against Apol7c 0.377
GUGACAAGAGAAGUCAAAATT against Ear1 0.67
CGGAGCCAAAUACGAAGGGTT against Jph3 -0.548
CCUUCGACACCUUACAAGUTT against Ndufa12 -0.282
CCCUAAUUUAUUCUCGGCGTT against Septin5 0.471
GCGAGAGAUUCUUUCCCUGTT against Traf6 -1.24
GGGACUUUUUUUCAAACACTT against 2900026A02Rik -0.814
CCGUCCGAUGAAAAACAGGTT against Prm1 -0.128
GCAGAUUGCAUCGGAAGAATT against BC061237 0.47
CGGCAGUCAGCAAAACAAATT against Pnpt1 -1.6
CUGGUUAGAAAGAUCUUCCTT against Grxcr1 -0.403
GGAGCAUUUUGGAUAAGAUTT against Nup88 -1.31
GGACAUUUAAGUGACUUGUTT against Dtnbp1 1.15
CGUUGGUUAUUAGUUGAUUTT against Luc7l2 -0.379
GCUCAAUGCUUUCUUGUCATT against 0610010F05Rik -0.17
GGAAAUUCUGGCAUAAAUUTT against Cd86 -0.732
GGUAACAAAUAAAGGAUACTT against Dgke -0.874
CGGGCUGGGAAGUUGUUAGTT against Bcl10 0.0153
GGUCUAGAGUUACCAUUCATT against Aqp9 -0.954
GCACUUUUUUGCUGCUGAUTT against Olfr1263 0.112
GCGAGAGAUGAAAUGGGUGTT against Tbc1d10c 1.07
GCAGGUGUAUACUAUGUUATT against G6pc 1.88
GCAGAAAUACGAAAUCAACTT against Tnnt2 0.046
GGACAAGGAAUACUACGAGTT against Ltbr 0.0172
GGAUCAGCUGUCAUCUGUGTT against Spsb4 -0.303
CGCAGUGGACUCAUCUUGATT against Sestd1 -0.65
GGACCAAUUUUUUCAGUUGTT against Rhag 0.495
GGAGGAGUGCAAGAAGAAGTT against Fahd1 0.327
GUUCUAUGUCCGGGAGCCATT against Ndufc1 1.51
GGAUGUACAUUCUACCUAUTT against Bap1 -0.239
GGAGUUGCCCUCAUCUUCATT against Casp6 -1.59
CCAUGAAGAUAUCCUACACTT against Olfr77 1.54
GGCUAAGAGACGAAACACUTT against Rpl37 -0.116
GCCACCACUUAGUUUAACATT against Cpa4 0.22
GCCCAAAAGACCUCAUAUUTT against Lef1 -0.518
CCUAUUGUGCAAAUGAACCTT against Cd164 -0.591
GCGGAGUCUUUGGCUUAGATT against Lratd2 1.03
CCAUUUUAGACUACAUCCATT against Naa60 0.873
GAUGCCUGACGAGAUAUUUTT against Scgb3a1 -0.576
GGAUGGAUGACUCCUAUUGTT against Gse1 -1.17
GGUAUGAAACCGUAUAAAUTT against Zfp60 0.00529
GGUACUCAAGGUUCAGACCTT against Tfe3 0.153
GGCAGCCCUCAAGUUAAUCTT against Zfp612 -0.552
GGAGAGGAAAAUCAUCCUGTT against Rims2 0.038
GCGUGACCAGUUCAGUGAATT against Tnfrsf17 0.755
GCCACCAACUCAGGUAGAATT against Nrip2 0.343
CCACUGACAACAAGUUGUUTT against Glra2 -1.58
GGAAGAAAGGAAAAAAGCUTT against Gnrhr -0.408

A stretch of the results above, for reference:
z-score, inactive:
GCCGAACUGUCAGUACUUCTT against Ccn3 0.0642
GGAUGGGUCAAUGUUCUACTT against V1rb6 0.232
GGUUGGAGCACUAGUGAGATT against Imp4 0.204
GGGAUAAGUACUCUGCUAATT against Sorcs3 -0.146
GGGCUGUUUGGAAUAAUAATT against Gmppb -0.0465
GGAAGAGAGCAGAAAGAAGTT against Trim35 -0.135
